Assay results as given in article PMC10207973.
These are yes or no findings as the source states them, for the method shown. Binding seen in cells or lysates may run through a third protein. Some entries that bind do so weakly or less than the wild type.

By UniProt entry, the sequences of proteins in these tests, tags left out.
UniProt Q3MHD2: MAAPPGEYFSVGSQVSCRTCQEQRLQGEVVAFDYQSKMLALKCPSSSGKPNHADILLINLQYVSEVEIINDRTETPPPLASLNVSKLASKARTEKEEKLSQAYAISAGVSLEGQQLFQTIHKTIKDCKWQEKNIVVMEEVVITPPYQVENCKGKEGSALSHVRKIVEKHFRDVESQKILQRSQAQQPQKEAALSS
UniProt P35222: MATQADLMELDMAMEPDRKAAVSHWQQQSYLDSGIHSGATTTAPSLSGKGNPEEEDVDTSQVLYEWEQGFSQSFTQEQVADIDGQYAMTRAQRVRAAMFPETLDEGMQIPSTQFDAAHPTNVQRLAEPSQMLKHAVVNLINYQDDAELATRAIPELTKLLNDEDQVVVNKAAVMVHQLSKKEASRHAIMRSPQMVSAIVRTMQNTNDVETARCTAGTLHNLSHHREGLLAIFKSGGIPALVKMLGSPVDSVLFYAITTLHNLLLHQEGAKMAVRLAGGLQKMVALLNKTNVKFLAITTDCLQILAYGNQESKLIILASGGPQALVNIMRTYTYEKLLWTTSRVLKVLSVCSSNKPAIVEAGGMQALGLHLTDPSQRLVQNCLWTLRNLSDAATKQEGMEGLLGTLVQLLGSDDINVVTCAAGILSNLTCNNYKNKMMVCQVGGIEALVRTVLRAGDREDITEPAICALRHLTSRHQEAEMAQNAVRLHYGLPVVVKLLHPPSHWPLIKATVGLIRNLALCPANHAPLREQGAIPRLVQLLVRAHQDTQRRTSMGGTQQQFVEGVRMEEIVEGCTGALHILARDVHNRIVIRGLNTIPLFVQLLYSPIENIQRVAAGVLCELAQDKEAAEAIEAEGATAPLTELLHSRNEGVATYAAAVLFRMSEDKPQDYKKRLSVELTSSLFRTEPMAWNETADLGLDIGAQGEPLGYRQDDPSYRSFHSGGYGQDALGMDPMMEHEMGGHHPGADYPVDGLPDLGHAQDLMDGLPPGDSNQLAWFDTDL
UniProt Q9UJU2: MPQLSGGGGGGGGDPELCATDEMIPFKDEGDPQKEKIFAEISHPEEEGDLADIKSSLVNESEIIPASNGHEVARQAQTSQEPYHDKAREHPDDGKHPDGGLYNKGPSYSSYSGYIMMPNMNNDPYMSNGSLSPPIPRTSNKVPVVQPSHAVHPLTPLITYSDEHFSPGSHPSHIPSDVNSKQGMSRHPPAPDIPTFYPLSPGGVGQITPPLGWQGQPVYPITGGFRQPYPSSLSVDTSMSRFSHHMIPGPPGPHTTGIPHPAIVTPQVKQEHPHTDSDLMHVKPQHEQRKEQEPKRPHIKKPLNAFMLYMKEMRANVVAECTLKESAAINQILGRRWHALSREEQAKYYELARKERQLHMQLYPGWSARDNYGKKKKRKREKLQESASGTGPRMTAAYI
UniProt P36402: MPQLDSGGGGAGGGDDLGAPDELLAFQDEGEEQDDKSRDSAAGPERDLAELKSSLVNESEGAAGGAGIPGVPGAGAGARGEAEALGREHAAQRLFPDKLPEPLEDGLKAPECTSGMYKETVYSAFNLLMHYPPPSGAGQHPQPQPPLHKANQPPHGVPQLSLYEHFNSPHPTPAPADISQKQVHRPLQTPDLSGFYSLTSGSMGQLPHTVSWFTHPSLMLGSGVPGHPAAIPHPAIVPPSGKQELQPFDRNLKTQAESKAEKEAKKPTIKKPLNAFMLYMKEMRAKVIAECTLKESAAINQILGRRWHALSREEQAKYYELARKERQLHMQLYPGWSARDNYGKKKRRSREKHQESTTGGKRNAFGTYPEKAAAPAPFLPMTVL

Experiments:
[1] = molecular target: LSM12 (like-Sm protein 12), endogenous (human (endogenous in SW480)) (UniProt Q3MHD2); experiment: co-IP; endogenous co-IP: SW480 lysate precleared with protein A/G magnetic beads, anti-LSM12 antibody or IgG 12 h at 4°C, protein A/G beads 4 h, Western blot
[2] = molecular target: CTNNB1 (β-Catenin), endogenous (human (endogenous in SW480)) (UniProt P35222); experiment: co-IP; endogenous co-IP with CTNNB1 antibody, Tet-On-shLSM12 cells with or without DOX (LSM12 knockdown); protein A/G beads, Western blot; cells SW480 by the methods, 293T-Tet-On-shLSM12 by the legend
[3] = molecular target: Flag-LSM12 (like-Sm protein 12) (UniProt Q3MHD2); experiment: co-IP; exogenous co-IP: 293T cells transfected with pcDNA3.1-LSM12-Flag + pcDNA3.1-CTNNB1-MYC (control pcDNA3.1-Flag + pcDNA3.1-CTNNB1-MYC), lysed after 48 h, immunoprecipitation with anti-flag and anti-cMYC antibodies, Western blot

Substance	binding [2]	also measured
CTNNB1 (β-Catenin), endogenous (from UniProt P35222 1-781)		binding [1]: binds
LEF1 (lymphoid enhancer factor), endogenous (from UniProt Q9UJU2 1-399)	binds	
Myc-CTNNB1 (β-Catenin) (from UniProt P35222 1-781)		binding [3]: binds
TCF1 (T cell-specific transcription factor), endogenous (from UniProt P36402 1-384)	binds	
